Measured values published in patent publication US20140302034A1 (STEM CENTRX, published 2014).
Results are given in words; binding and its absence hold for the method and conditions named. Binding can be weak; no strength is given.

Key:
[1] = molecular target: recombinant human EFNA1 His fusion protein (human); assay: Western blot with non-reduced (NR) and reduced (R) samples, Example 8
[2] = molecular target: recombinant human EFNA3 His fusion protein (human); assay: as above

| Binder | binding [1] | binding [2] |
| --- | --- | --- |
| SC9.20 (antibody, V domains shown) VH: DVQLQESGPGLVKPSQSLSLTCSVTGYSITSGYYWNWIRQFPGNRLEWMAYISYDGSNDYNPSLKNRISITRDTSKNQFFLKLNSVTTEDTATYYCARGYPILFAYWGQGTLVTVSA VL: DIKMTQSPSSMNASLGERVSITCKTSQDINSYLSWLQQKPGKSPKTLIYRANRLVDGVPSRFSGSGSGQDYSLTISSLEYEDMGIYYCLQYDEFPLTFGIGTKLELK | binds |  |
| SC11.34 (antibody, V domains shown, Murine monoclonal antibody from a hybridoma; also called EFNA3 modulator SC11.34) VH: DVHLQETGPGLVKPSQSLSVTCTVTGYSITSDYAWNWIRQFPGNKLEWMGYISYSGGTRYNPSVKSRISITRDTSKNQFFLQLNSVTTEDTATYYCARGPYAGYPAWFDYWGPGTLVTVSA VL: ENVLTQSPAIMSASLGEKVTMSCRANSSINYMYWYQQKSDASPKLWIYYTSNLAPGVPARFSGSGSGNSYSLTISSMEGEDAATYYCQQFTSSPWTFGGGTKLEIK |  | binds |
| SC11.51 (antibody, V domains shown, Murine monoclonal antibody from a hybridoma; also called EFNA3 modulator SC11.51) VH: EVQLQQSGPELVKPGASVKISCKASGYTFTDYYMNWVKQTHGKSLEWIGDITPNSGGPTYNQNFKGKATLTVDRSSTTAFMELRSLTSDDSAVYYCVRSAYYYGTNYDFDYWGQGTTLTVSS VL: QIVLTQSPAIMSASPGEKVTMTCSASSSVTYMYWYQQKPGSSPKPWIYRTSNLASGVPTRFSGSGSGTSYSLTISSVEAEDTATYYCQQYSDYPLTFGAGTKLELK |  | binds |
